According to patent US9763884B2, “Drug delivery system” (EB IP HYBRITABS B.V., priority 2011, dated 2017):

Experiment: Pharmacokinetics of three single doses of sublingual testosterone solution in healthy premenopausal women
Procedure: All 16 subjects received each investigational drug dose once in random order. Wash-out between treatments was at least 48 h. Subjects had serial blood samples drawn via an intravenous catheter. Pharmacokinetic parameters were monitored at baseline and (at 2, 4, 6, 8, 10, 20, 30, 60, 90, 120, 180, 230 min) after dosing.
Blood samples in the placebo condition were only measured at −5, 10, 60 and 230 min.
For the placebo solution 0.50 ml was administered.
The different doses were prepared by an unblinded research associate and administered by blinded research associates. […]
E2 was analysed by a chemiluminescence immunoassay (Siemens), the LLOQ was […]. 3α-diol-G was measured by ELISA (BioVendor), the LLOQ was 0.25 ng/mL. SHBG was measured by an electrochemiluminescent assay (ECLIA, Roche). Albumin was measured by Roche Bromocresol Green (BCG) analysis (Roche).
The pharmacokinetic parameters were analyzed using the WinNonlin software (version 5.1). Pharmacokinetic parameters including area under the curve, t=0 till t=230 min (AUC0-230), maximum concentration (Cmax) and time to maximum concentration (tmax) were calculated based on actual and baseline corrected individual concentration time curves. […] Tmax was analyzed using a Wilcoxon rank sum test. […]

For C[C@]12CC[C@H]3[C@@H](CCC4=CC(=O)CC[C@@]43C)[C@@H]1CC[C@@H]2O [Testosterone, testosterone], the “changes in SHBG and albumin levels” value (between and on test days) was “no statistically significant changes” and the E2 levels (between the three doses, t=60 and t=230 min) was “did not change”.
